Laboratory results taken from patent US20230391776A1, “AMIDE OXAZOLE COMPOUND” (MEDSHINE DISCOVERY INC., priority 2020, published 2023).
At least one structure is not confirmed: it was looked up by name or label, or the drawing left a doubt.

Test system: TNF-α secretion induced by LPS
Test: TNF-α secretion model induced by LPS in SD rats
Type: in vivo
Settings: 0.5 mpk oral gavage 0.5 h before 1 mg/kg LPS i.p., plasma 2 hours after modeling, p<0.01
Experimental: a) The pharmacokinetic effect of compound WX009 on TNF-α secretion model induced by LPS in SD rats.
Female SD rats were randomly divided into four groups according to the animal weight, namely Sham group, Model group and Dexamethasone (dosage: 0.5 mpk, DEX-0.5 mpk) group and tested drug WX009 (dosage: 25 mpk, WX009-25 mpk) group, with 6-9 animals in each group. The model was established by a single intraperitoneal injection of 1 mg/kg LPS. Dexamethasone and tested drug were given orally by gavage 0.5 h before modeling. After modeling for 2 hours, the animals were weighed, and all the experimental animals were anesthetized by intraperitoneal injection of pentobarbital sodium. An anticoagulant whole blood was collected through sublingual vein, anticoagulant: EDTA-K2, the plasma was separated, and the plasma volume was about 200 μL, which was used to detect the content of inflammatory factor, TNF-α.

C[C@@H]1C[C@H]2[C@@H]3CCC4=CC(=O)C=C[C@]4(C)[C@@]3(F)[C@@H](O)C[C@]2(C)[C@@]1(O)C(=O)CO [Dexamethasone, reference compound]
TNF-α content in animal plasma compared with the Model group: decreased significantly
